PubChem BioAssay AID493246 – Drosophila RNAi Screening Center, 2011
Screen: 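Genome-wide search for dsRNAs that reduce cell number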 (primary screen). Cells: Drosophila Kc and S2R+ cells. Reagent: long dsRNA against Drosophila genes. Measurement: 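Raw, unnormalised count of remaining cells in each well; per-plate z-scores of cell number underlie the calls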. Scale: Kc cell number and S2R+ cell number: higher = more cells remaining. Active means: 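Active when the per-plate z-score of cell number is 3 or more in the direction of fewer cells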.
In all, the deposit lists about 21,000 reagents; shown is a random part of those that have a named target and a result. In the full data, 429 (2%) got an active call. 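Values are raw and not normalised between plates; calls rest on per-plate z-scores that were not deposited.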 A plus sign joins genes that one reagent is predicted to hit. Not stated in the record: the amount of reagent, the time to read-out.

Gene	DRSC id	Kc cell number, rep 1	Kc cell number, rep 2	S2R+ cell number, rep 1	S2R+ cell number, rep 2	activity call
EndoB (Endophilin B)	DRSC07345	1.46e6	1.56e6	9.56e5	1.17e6	inactive
cpb (capping protein beta)	DRSC00809	1.61e6	1.58e6	9.05e5	9.22e5	inactive
CG11597	DRSC09847	1.47e6	1.59e6	1.39e6	1.29e6	inactive
HipHop (HP1-HOAP-interacting protein)	DRSC10734	1.60e6	1.64e6	1.25e6	1.31e6	inactive
sns (sticks and stones)	DRSC06423	2.85e5	4.49e5	6.47e5	7.97e5	active
sns (sticks and stones)	DRSC07687	1.80e6	1.77e6	1.26e6	1.51e6	inactive
sns (sticks and stones)	DRSC07689	1.52e6	1.59e6	1.25e6	1.34e6	inactive
sns (sticks and stones)	DRSC07691	1.44e6	1.49e6	1.21e6	1.29e6	inactive
sns (sticks and stones)	DRSC07692	1.39e6	1.46e6	8.45e5	9.84e5	inactive
CG3505	DRSC15489	1.45e6	1.51e6	1.23e6	1.31e6	inactive
CG13285	DRSC09960	1.46e6	1.54e6	1.14e6	1.22e6	inactive
CG14332	DRSC14811	1.30e6	1.36e6	1.10e6	1.24e6	inactive
CG7997	DRSC07052	1.42e6	1.46e6	1.10e6	1.14e6	inactive
Rrp45	DRSC20198	1.40e6	1.45e6	1.00e6	1.09e6	inactive
Sptr (Sepiapterin reductase)	DRSC18719	5.71e5		8.39e5		inactive
MstProx	DRSC12458	1.42e6	1.48e6	1.10e6	1.28e6	inactive
MstProx	DRSC12601	1.58e6	1.75e6	1.32e6	1.44e6	inactive
Ufc1 (Ubiquitin-fold modifier conjugating enzyme 1)	DRSC07156	1.35e6	1.46e6	1.17e6	1.17e6	inactive
CG1789	DRSC18140	5.39e5		8.00e5		inactive
CG13460	DRSC10007	1.24e6	1.43e6	1.26e6	1.39e6	inactive
Mp20 (Muscle protein 20)	DRSC07474	1.46e6	1.50e6	1.16e6	1.26e6	inactive
CG30047	DRSC05340	1.40e6	1.53e6	9.41e5	1.19e6	inactive
CG4712	DRSC06882	1.56e6	1.52e6	1.19e6	1.24e6	inactive
Sema2a (Semaphorin 2a)	DRSC07551	1.38e6	1.43e6	1.16e6	1.23e6	inactive
dcma (decima)	DRSC00246	1.49e6	1.53e6	1.03e6	1.14e6	inactive
dcma (decima)	DRSC00338	1.58e6	1.40e6	1.14e6	1.23e6	inactive
CG10359	DRSC08156	1.31e6	1.42e6	1.26e6	1.16e6	inactive

Next part; the last 7 above are carried over.
Gene	DRSC id	Kc cell number, rep 1	Kc cell number, rep 2	S2R+ cell number, rep 1	S2R+ cell number, rep 2	activity call
Mp20 (Muscle protein 20)	DRSC07474	1.46e6	1.50e6	1.16e6	1.26e6	inactive
CG30047	DRSC05340	1.40e6	1.53e6	9.41e5	1.19e6	inactive
CG4712	DRSC06882	1.56e6	1.52e6	1.19e6	1.24e6	inactive
Sema2a (Semaphorin 2a)	DRSC07551	1.38e6	1.43e6	1.16e6	1.23e6	inactive
dcma (decima)	DRSC00246	1.49e6	1.53e6	1.03e6	1.14e6	inactive
dcma (decima)	DRSC00338	1.58e6	1.40e6	1.14e6	1.23e6	inactive
CG10359	DRSC08156	1.31e6	1.42e6	1.26e6	1.16e6	inactive
CG14797	DRSC17955	1.44e6	1.62e6	1.06e6	1.19e6	inactive
CG33978	DRSC17106	1.26e6	1.49e6	9.93e5	1.08e6	inactive
CG30110	DRSC05686	5.53e5		8.20e5		inactive
CG18302	DRSC02663	1.63e6	1.67e6	1.29e6	1.56e6	inactive
CG15408	DRSC00423	1.46e6	1.41e6	1.10e6	1.28e6	inactive
CG32762	DRSC18298	1.13e6	1.65e6	1.06e6	1.21e6	inactive
ProtB (Protamine B)	DRSC03373	1.53e6	1.61e6	1.32e6	1.48e6	inactive
Acp53C14a (Accessory gland protein 53C14a)	DRSC07224	1.63e6	1.66e6	1.18e6	1.41e6	inactive
RIOK1 (RIO kinase 1)	DRSC09853	1.47e6	1.55e6	1.28e6	1.24e6	inactive
TBC1d7 + mRpS24	DRSC14611	1.32e6	1.36e6	9.19e5	1.01e6	inactive
CG7420	DRSC00704	1.42e6	1.41e6	9.88e5	1.02e6	inactive
alt (aluminum tubes)	DRSC15315	1.73e6	1.91e6	1.19e6	1.18e6	inactive
Ude (Uracil-DNA degrading factor)	DRSC15324	1.55e6	1.59e6	1.17e6	1.24e6	inactive
CG13339	DRSC06373	1.55e6	1.59e6	1.28e6	1.42e6	inactive
CG4168	DRSC01446	1.52e6	1.61e6	1.00e6	1.21e6	inactive
CG4168	DRSC01447	1.57e6	1.61e6	1.03e6	1.31e6	inactive
CG4168	DRSC01933	1.31e6	1.33e6	1.26e6	1.26e6	inactive
CG9586	DRSC03270	1.61e6	1.62e6	1.18e6	1.27e6	inactive
ND-B15 (NADH dehydrogenase (ubiquinone) B15 subunit)	DRSC06199	1.24e6	1.48e6	1.13e6	1.21e6	inactive
CG10920	DRSC17765	1.57e6	1.56e6	1.16e6	1.28e6	inactive
CG14354	DRSC14817	1.52e6	1.56e6	8.51e5	9.27e5	inactive
pncr004:X (retired record)	DRSC19295	1.30e6	1.47e6	1.06e6	1.17e6	inactive
CG3294	DRSC00590	1.17e6	1.32e6	7.36e5	6.13e5	inactive
CG11068	DRSC19369	1.44e6	1.49e6	1.03e6	1.08e6	inactive
Coa7 (Cytochrome c oxidase assembly factor 7)	DRSC20967	1.54e6	1.57e6	1.20e6	1.34e6	inactive
scrib (scribble)	DRSC13774	1.15e6	1.46e6	1.09e6	1.14e6	inactive
scrib (scribble)	DRSC15809	5.73e5		7.22e5		inactive
scrib (scribble)	DRSC17051	1.55e6	1.57e6	1.03e6	1.18e6	inactive
CG17266	DRSC04979	1.88e6	1.93e6	1.44e6	1.62e6	inactive
CG13538	DRSC04180	1.81e6	1.86e6	1.24e6	1.47e6	inactive
CG8850	DRSC07287	1.59e6	1.55e6	1.18e6	1.33e6	inactive
trus (toys are us)	DRSC15772	1.81e6	1.82e6	1.14e6	1.32e6	inactive
CG18130	DRSC19790	1.51e6	1.45e6	9.97e5	1.12e6	inactive
CG12498	DRSC18635	1.52e6	1.53e6	1.02e6	1.16e6	inactive
pwn (pawn)	DRSC06035	1.55e6	1.58e6	1.24e6	1.38e6	inactive
mri (mrityu)	DRSC08259	1.32e6	1.34e6	1.16e6	1.20e6	inactive
RabGGTb (Rab geranylgeranyltransferase subunit beta)	DRSC00804	1.31e6	1.36e6	7.05e5	8.22e5	inactive
Oseg6 (Outer segment 6)	DRSC06066	1.47e6	1.54e6	1.08e6	1.22e6	inactive
CG18754	DRSC15387	1.66e6	1.80e6	9.76e5	1.17e6	inactive
gdrd (goddard)	DRSC10020	1.40e6	1.60e6	1.28e6	1.42e6	inactive
CG7881	DRSC04898	1.50e6	1.50e6	1.28e6	1.46e6	inactive
CG13299	DRSC09973	1.25e6	1.18e6	1.12e6	1.20e6	inactive
Dhfr (Dihydrofolate reductase)	DRSC16646	1.43e6	1.42e6	1.22e6	1.24e6	inactive
dup (double parked)	DRSC07088	5.35e5	5.87e5	4.71e5	5.75e5	active
CG15263	DRSC01974	1.54e6	1.58e6	1.24e6	1.35e6	inactive
Lgr4 (Leucine-rich repeat-containing G protein-coupled receptor 4)	DRSC18969	1.63e6	1.74e6	1.19e6	1.28e6	inactive
Lgr4 (Leucine-rich repeat-containing G protein-coupled receptor 4)	DRSC18970	1.48e6	2.05e6	1.14e6	1.27e6	inactive
Lgr4 (Leucine-rich repeat-containing G protein-coupled receptor 4)	DRSC19884	1.53e6	1.49e6	1.05e6	1.13e6	inactive
